Measured data: PubChem BioAssay AID1671195 (Yale University, 2021)
Assay: 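Regulators of LDL receptor activity judged by labelled LDL uptake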 (primary screen). System: human Huh7 hepatoma cells. Knock-down reagent: siRNA pool against human genes, 18 nM. Duration: about 2 to 2.5 days of knockdown, then 8 h LDL uptake. Conditions: DiI-labelled LDL at 30 µg/ml for 8 h, in lipoprotein-deficient serum medium. Measurement: 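Per-cell DiI-LDL intensity by automated imaging; well means scaled to the plate median and given as a robust z-score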. Reading the numbers: robust z-score: higher = more LDL uptake after knockdown. Hit rule: 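Active when two or more replicates show a robust z-score above 2 or below -2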.
This is a random part of about 22,000 reagents. About 1,510 of them (6.9%) count as active. 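Active includes knockdowns raising or lowering LDL uptake; positive z-scores mean more uptake, negative mean less.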 Reagent sequences are not shown.

| gene knocked down | PubChem SID | robust z-score, replicate 1 | robust z-score, replicate 2 | robust z-score, replicate 3 | Call |
| --- | --- | --- | --- | --- | --- |
| RPS2 (ribosomal protein S2) | SID442895710 | -1.13 | -0.273 | 0.804 | inactive |
| KDM1A (lysine demethylase 1A) | SID442900160 | -0.506 | -0.686 | -0.972 | inactive |
| UBE2Q2 (ubiquitin conjugating enzyme E2 Q2) | SID442886507 | 0.041 | 1.81 | 1.58 | inactive |
| FOXH1 (forkhead box H1) | SID442899122 | -0.515 | -0.822 | -0.401 | inactive |
| ACTBL2 (actin beta like 2) | SID442894290 | -0.107 | -0.00252 | -0.0301 | inactive |
| ZSWIM4 (zinc finger SWIM-type containing 4) | SID442897006 | -0.28 | -0.333 | -0.397 | inactive |
| VPS25P1 (VPS25 pseudogene 1) | SID442893236 | 0.0846 | 0.235 | -0.0995 | inactive |
| MAN1C1 (mannosidase alpha class 1C member 1) | SID442900504 | -0.6 | -0.467 | -1.24 | inactive |
| RPL5P18 (ribosomal protein L5 pseudogene 18) | SID442900016 | -0.923 | -0.554 | -0.624 | inactive |
| REG3A (regenerating family member 3 alpha) | SID442895760 | -0.405 | -0.554 | 0.35 | inactive |
| SPR (sepiapterin reductase) | SID442894313 | 0.3 | -0.463 | 0.013 | inactive |
| RPL37A (ribosomal protein L37a) | SID442900159 | -0.82 | -0.937 | -0.408 | inactive |
| UBL7-DT (UBL7 divergent transcript) | SID442904701 | -1.91 | -1.72 | -1.81 | inactive |
| BCL2L11 (BCL2 like 11) | SID442899933 | -0.358 | -0.773 | -0.934 | inactive |
| C14orf181 (retired record) | SID442903072 | -0.803 | -1.17 | -1.65 | inactive |
| KRI1 (KRI1 homolog) | SID442903543 | -1.32 | -1.34 | -1.32 | inactive |
| HOXB5 (homeobox B5) | SID442889105 | 0.333 | 1.06 | 0.442 | inactive |
| DGAT2 (diacylglycerol O-acyltransferase 2) | SID442887255 | 1.12 | 1.13 | 0.607 | inactive |
| LOC440058 (retired record) | SID442896134 | -0.228 | 0.131 | -0.627 | inactive |
| ODC1 (ornithine decarboxylase 1) | SID442904016 | -1.62 | -1.47 | -1.3 | inactive |
| NKD1 (NKD inhibitor of Wnt signaling pathway 1) | SID442897884 | -0.402 | -0.303 | -0.6 | inactive |
| PLGRKT (plasminogen receptor with a C-terminal lysine) | SID442900689 | -1.36 | -0.965 | -0.0565 | inactive |
| PC (pyruvate carboxylase) | SID442893420 | -0.878 | 0.533 | 0.501 | inactive |
| SLIRP-OT1 (SLIRP overlapping transcript 1) | SID442888184 | 0.733 | 1.15 | 0.428 | inactive |
| NHP2 (NHP2 ribonucleoprotein) | SID442898640 | 0.503 | -1.58 | -0.487 | inactive |
| DIPK2A (divergent protein kinase domain 2A) | SID442883993 | 1.87 | 2.35 | 2.03 | active |
| METTL21EP (methyltransferase like 21E, pseudogene) | SID442883321 | 3.46 | 3.21 | 3.14 | active |
| RAN (RAN, member RAS oncogene family) | SID442887683 | 1.07 | -0.038 | 1.56 | inactive |
| U2AF1L4 (U2 small nuclear RNA auxiliary factor 1 like 4) | SID442893793 | 0.178 | -0.0917 | -0.0565 | inactive |
| EPB41L4A-DT (EPB41L4A divergent transcript) | SID442884187 | 0.164 | 2.44 | 2.7 | active |
| LOC442053 (retired record) | SID442893915 | -0.0913 | 0.0377 | 0.0435 | inactive |
| RASA1 (RAS p21 protein activator 1) | SID442900069 | -0.719 | -0.573 | -0.831 | inactive |
| BLOC1S1 (biogenesis of lysosomal organelles complex 1 subunit 1) | SID442898186 | -0.667 | -0.321 | -0.424 | inactive |
| CLEC7A (C-type lectin domain containing 7A) | SID442901597 | -0.903 | -0.981 | -0.89 | inactive |
| TNNT2 (troponin T2, cardiac type) | SID442904363 | -1.76 | -2.45 | -0.585 | inactive |
| LOC390426 (retired record) | SID442903645 | -1.56 | -1.13 | -1.35 | inactive |
| PLAAT1 (phospholipase A and acyltransferase 1) | SID442894395 | 0.469 | -0.392 | -0.255 | inactive |
| AIFM3 (AIF family member 3) | SID442896073 | -0.754 | 0.257 | -0.21 | inactive |
| PLAC1 (placenta associated 1) | SID442900501 | -0.076 | -0.653 | -1.58 | inactive |
| C14orf132 (chromosome 14 open reading frame 132) | SID442889984 | -0.584 | 1 | 1.02 | inactive |
| NBPF22P (NBPF member 22, pseudogene) | SID442894555 | 0.223 | -0.329 | -0.118 | inactive |
| ENPP5 | SID442896832 | -0.311 | -0.265 | -0.376 | inactive |
| LRRC8D (leucine rich repeat containing 8 VRAC subunit D) | SID442896858 | -0.399 | -0.043 | -0.52 | inactive |
| OR3A4P (olfactory receptor family 3 subfamily A member 4 pseudogene) | SID442886639 | 1.57 | 0.666 | 1.07 | inactive |
| TMC4 (transmembrane channel like 4) | SID442898900 | -0.22 | -0.373 | -1.06 | inactive |
| LINC02897 (long independently transcribed non-coding RNA 2897) | SID442883164 | 4.38 | 3.95 | 4.58 | active |

No new results follow: entries from further up.
| gene knocked down | PubChem SID | robust z-score, replicate 1 | robust z-score, replicate 2 | robust z-score, replicate 3 | Call |
| --- | --- | --- | --- | --- | --- |
| U2AF1L4 (U2 small nuclear RNA auxiliary factor 1 like 4) | SID442893793 | 0.178 | -0.0917 | -0.0565 | inactive |
| EPB41L4A-DT (EPB41L4A divergent transcript) | SID442884187 | 0.164 | 2.44 | 2.7 | active |
| LOC442053 (retired record) | SID442893915 | -0.0913 | 0.0377 | 0.0435 | inactive |
| RASA1 (RAS p21 protein activator 1) | SID442900069 | -0.719 | -0.573 | -0.831 | inactive |
| BLOC1S1 (biogenesis of lysosomal organelles complex 1 subunit 1) | SID442898186 | -0.667 | -0.321 | -0.424 | inactive |
| CLEC7A (C-type lectin domain containing 7A) | SID442901597 | -0.903 | -0.981 | -0.89 | inactive |
